# Measurements: PubChem BioAssay AID540275 (National Center for Advancing Translational Sciences (NCATS), 2011)
# Sequences of proteins named here, by UniProt entry; tags and fusion partners are left off.
# UniProt Q8NER1, whole entry, looked up: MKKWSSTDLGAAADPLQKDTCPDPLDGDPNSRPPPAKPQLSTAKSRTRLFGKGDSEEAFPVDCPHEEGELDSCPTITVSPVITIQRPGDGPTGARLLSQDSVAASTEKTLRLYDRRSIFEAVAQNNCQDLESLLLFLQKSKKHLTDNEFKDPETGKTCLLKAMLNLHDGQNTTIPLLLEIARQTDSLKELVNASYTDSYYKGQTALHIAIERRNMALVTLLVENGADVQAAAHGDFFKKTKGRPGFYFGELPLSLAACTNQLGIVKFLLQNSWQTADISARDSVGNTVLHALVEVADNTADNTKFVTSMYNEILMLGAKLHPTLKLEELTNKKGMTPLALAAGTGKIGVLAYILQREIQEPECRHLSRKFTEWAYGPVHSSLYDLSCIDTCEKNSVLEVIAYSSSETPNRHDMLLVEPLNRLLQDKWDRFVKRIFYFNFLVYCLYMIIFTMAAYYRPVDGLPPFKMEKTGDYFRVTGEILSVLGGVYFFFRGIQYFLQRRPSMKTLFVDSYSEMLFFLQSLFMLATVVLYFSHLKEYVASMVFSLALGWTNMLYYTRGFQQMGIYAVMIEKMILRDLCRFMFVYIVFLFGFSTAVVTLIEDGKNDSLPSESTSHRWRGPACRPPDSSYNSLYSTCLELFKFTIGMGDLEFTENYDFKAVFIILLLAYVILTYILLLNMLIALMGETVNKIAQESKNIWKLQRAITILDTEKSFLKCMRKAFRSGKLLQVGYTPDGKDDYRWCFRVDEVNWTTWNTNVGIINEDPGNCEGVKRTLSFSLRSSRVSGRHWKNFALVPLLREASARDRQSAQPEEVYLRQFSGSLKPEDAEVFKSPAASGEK
# In all, about 320,000 compounds went through this assay and about 620 (0.19%) were called active. Inconclusive means that the source gave no clear call. Such entries were picked first, then a sample of the others. Rule as the data show it: active = activation above about 80%; inconclusive = between about 30% and that limit; inactive = weaker than that.
# Target: Transient receptor potential cation channel subfamily V member 1 (Homo sapiens) (UniProt Q8NER1)
# Experiment: HTS Assay for Compounds that Act as Agonists of the Vanilloid Receptor 1; also: 0% is about no effect
# Conditions: TRPV1-expressing cells, Fluo-8 calcium influx, agonist mode; at 8.33 µM, active compounds read high
# Method in brief: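 TRPV1-expressing cells were cultured overnight at 35.5C and loaded with Fluo-8 calcium dye for 40 to 90 min at room temperature. After a 10 s baseline, compound was added and calcium influx was read kinetically for 3 min (ex 480/em 520 nm).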
row,SMILES,activation
1,Cc1ccc(C(C)C)c(OCCNCc2ccccc2)c1,inconclusive: 30.5%
2,COc1ccccc1OCC(=O)Nc1ccc(N2CCCCC2)cc1,inactive: 3.92%
3,CCOC(=O)C1CCN(c2nc3cc(OC)ccc3cc2C#N)CC1,inconclusive: 31.1%
4,CNC(=O)c1ccc(NC(=O)C2CCN(S(=O)(=O)c3cccc(C(F)(F)F)c3)CC2)cc1,inconclusive: 59.2%
5,O=C(CSc1nnc(-c2ccccn2)n1Cc1ccccc1)N1CCCC1,inconclusive: 50.6%
6,CCOCC(=O)N1CCN(c2ccc([N+](=O)[O-])cc2)CC1,inactive: 1.35%
7,Nc1c(-c2ccccc2)nc(Cl)nc1-c1ccccc1,inactive: 6.39%
8,O=C(CN1CCN(S(=O)(=O)c2ccccc2)CC1)Nc1ccc([N+](=O)[O-])cc1,inactive: 12.8%
9,CCOc1ccc(NC(=O)c2ccccc2O)cc1,inconclusive: 54.5%
10,CCCCOc1ccc(C(=O)NCC(=O)NCCOc2ccc(C)cc2)cc1,inactive: 0.841%
11,CC(=O)c1csc(-c2cccc(-c3nc4ccc(Cl)cn4c3NC3CCCCC3)c2)c1,inconclusive: 37.6%
12,NNC(=S)Nc1ccc(S(=O)(=O)N2CCOCC2)cc1,inactive: -0.64%
13,Cn1c(-c2ccc(F)cc2)cnc1NCc1cc2c(cc1[N+](=O)[O-])OCO2,inactive: -4.29%
14,Cc1ccc(CNC(=O)C2CCCN(c3nc4ccccc4o3)C2)cc1 (stereo not drawn),inactive: 25.7%
15,Cc1cc(C)c2nc(N3CCCC(C(=O)NC4CCCC4)C3)sc2c1 (stereo not drawn),inconclusive: 37.3%
16,COc1ccc(-c2oc3ccccc3c(=O)c2OCC(=O)O)cc1,inactive: -0.287%
17,O=C(COC(=O)/C=C/c1cccc(C(F)(F)F)c1)NCc1ccc(F)cc1,inconclusive: 32.5%
18,N#Cc1cc(O)c(-n2nnc3ccccc32)cc1C#N,inactive: 1.64%
19,C=C(C)c1cccc(C(C)(C)NC(=O)Nc2cccnc2)c1,active: 97.6%
20,Cc1c(C=O)c2ccccc2n1CCOc1ccccc1F,inactive: 9.09%

# A portion of the results above, as a working copy:
row,SMILES,activation
16,COc1ccc(-c2oc3ccccc3c(=O)c2OCC(=O)O)cc1,inactive: -0.287%
17,O=C(COC(=O)/C=C/c1cccc(C(F)(F)F)c1)NCc1ccc(F)cc1,inconclusive: 32.5%
18,N#Cc1cc(O)c(-n2nnc3ccccc32)cc1C#N,inactive: 1.64%

# Following part:

row,SMILES,activation
1,N#CCc1ccc(NC(=O)c2ccc(S(=O)(=O)N3CCOCC3)cc2)cc1,inconclusive: 48.9%
2,COc1ccc(NC(=O)c2cccc(Oc3ccccc3)c2)cn1,inconclusive: 56.7%
3,CCCC(C)C(=O)Nc1cccc(NC(C)=O)c1 (stereo not drawn),inactive: -3.58%
4,CCCN1C(=O)C(Cc2nc3ccccc3c(=O)n2-c2ccccc2)c2cc(C)ccc21 (stereo not drawn),inconclusive: 45.4%
5,Cc1ccccc1NC(=O)Nc1ccc(C(F)(F)F)cc1,inconclusive: 62.5%
6,CCN(CC)c1ccc2cc(NC(=O)CCC(=O)O)c(=O)oc2c1,inactive: 7.06%
7,CC1(C)CC(C(CCN(Cc2ccccc2)C(=O)c2ccco2)c2ccc(F)cc2)CCO1 (stereo not drawn),inconclusive: 37.5%
8,Cc1ccccc1OCc1n[nH]c(=S)n1-c1ccccc1,inactive: -0.652%
9,COc1cccc(C2CC(c3cccs3)=NN2C(=O)CSc2nc3ccccc3s2)c1OC (stereo not drawn),inactive: 3.82%
10,Cc1cccn2c(=O)c3cc(C(=O)NCCN4CCOCC4)c(=N)n(Cc4ccc(F)cc4)c3nc12,inconclusive: 50.7%
11,CCn1cc(Br)c(C(=O)Nc2ccc(Cl)c(Cl)c2)n1,inconclusive: 41.9%
12,Cc1cn2c(=O)c(C(=O)N3CCN(c4ccccc4Cl)CC3)cnc2s1,inconclusive: 30.6%
13,COc1cc(SC)ccc1C(=O)Nc1ccc(C)cc1C,inactive: -3.18%
14,Cc1ccc(-c2nc3nc4ccccc4nc3n2Cc2ccco2)cc1,inactive: 27.9%
15,CNNC(=S)Nc1cccc(C(F)(F)F)c1,inactive: 0.0281%
16,c1ccc(-c2cn3nc(-c4ccccc4)c(-c4ccccc4)nc3n2)cc1,inconclusive: 37.5%
17,Nc1nccc(-c2cccs2)n1,inactive: -2.45%
18,CCc1cc(C(=O)c2ccc(OC)cc2)c(NC(=O)COCC(=O)O)s1,inactive: -3.04%
19,Cc1ccc(-n2ncc3c(=O)n(CC(=O)NCc4ccco4)cnc32)cc1,inactive: 0.668%
20,COc1ccc(CNC(=O)CN(c2ccc(OC)c(Cl)c2)S(=O)(=O)c2ccc(C)cc2)cc1,inconclusive: 34.5%

row,SMILES,activation
1,CCCCN1C[C@H](Cc2ccccc2)[C@@H](CC(=O)NCc2ccc(OC)cc2)C1=O,inconclusive: 45.7%
2,CC1CCC(NC(=O)c2cc(S(=O)(=O)N3CCCCC3)ccc2N2CCOCC2)CC1 (stereo not drawn),inconclusive: 53.4%
3,N#CC1(c2ccc(NC(=O)c3ccccc3F)cc2)CCCC1,inconclusive: 42.8%
4,O=C(NCCc1ccccc1)/C(=C\c1ccc([N+](=O)[O-])cc1)NC(=O)c1ccc(Br)cc1,inactive: -2.03%
5,Cc1c(C(=O)OCC(=O)N2CCCCC2C)oc2ccccc12 (stereo not drawn),inconclusive: 32%
6,O=C(c1cc(COc2ccc(F)cc2F)on1)N1CCSCC1,inconclusive: 42.7%
7,COc1cc(/C=C(/C(=O)O)c2ccc(-c3ccccc3)cc2)cc(OC)c1OC,inactive: -1.05%
8,COc1ccc2c(c1)CC/C(=C\C=C\c1ccccc1OC)C2=O,inconclusive: 38.1%
9,CC1CCN(C(=O)C2CCCN(S(=O)(=O)c3ccc4c(c3)CC(C)N4C(=O)C3CC3)C2)CC1 (stereo not drawn),inconclusive: 58%
10,Cc1cc(-c2ccc(S(=O)(=O)N3CCCCC3)s2)on1,inconclusive: 42.8%
11,O=C(O)CCC(=O)N1N=C(c2cccs2)CC1c1cn(-c2ccccc2)nc1-c1ccccc1 (stereo not drawn),inactive: 21.5%
12,CC1CN(C(=O)CN2C(=O)NC3(CCCCCC3)C2=O)CC(C)O1 (stereo not drawn),inactive: -1.46%
13,O=C(CCCc1nc(-c2ccccc2Cl)no1)NC1CCCC1,inactive: 7.45%
14,COC(=O)Cc1ccc(NC(=S)N2CCN(c3cc(Cl)ccc3C)CC2)cc1,inactive: 0.0504%
15,CCCCCn1c(C(C)NC(=O)CCC)nc2ccccc21 (stereo not drawn),inconclusive: 37.3%
16,FC(F)(F)c1cc(-c2ccccc2)nc2nc(N3CCOCC3)sc12,inconclusive: 31.7%
17,COc1cc2ccccc2cc1C(=O)Nc1ccc(C)cn1,inconclusive: 41.6%
18,Cn1c(/C(C#N)=C/c2ccc(O)cc2)nc2ccccc21,inconclusive: 57.4%
